The values that follow come from PubChem BioAssay AID202 (DTP/NCI, 2004).

The list shows only some results of the screen, not a fair sample: it is rich in T/C values a quarter to a half above the control, in often repeated tests (any T/C) and in doses without a T/C. Other doses and runs of a compound stand elsewhere. T/C: endpoint of the treated group in % of that of the vehicle group. Schedule codes are those of the source, read here as Q, the interval in days (D) or hours (H), X, the number of doses. Some doses have a count of surviving animals in place of a T/C: the source files T/C as zero there, which appears to mark a toxic dose or a test without result, not a measured value. Counts of survivors are from the toxicity check (mostly the fifth day) where no day follows; animals may have died later.

The test system of this experiment is HT29 xenograft, nude mice, s.c., tumor weight T/C%. The experiment is described as follows: NCI In Vivo Anticancer Drug Screen. Data for tumor model HT29;CX-1 Human Adenocarcinoma (MER+) (subcutaneous) in NU/NU Swiss (nude) mice. As to conditions: T/C endpoint: optimum tumor weight change, schedule: Q04DX003 (ip), higher T/C = larger tumour. As to the method:
The antitumor activity of compounds was measured in mice bearing transplantable tumors. Survival or tumor size were measured and the results are expressed as the measurement made in the treated group (T) divided by the measurement made in the vehicle treated control group (C). The tumor model used in this assay is HT29;CX-1 Human Adenocarcinoma (MER+) (subcutaneous) in NU/NU Swiss (nude) mice

The mark [1] stands for this setting: dose: 200.0 mg/kg/injection, vehicle: saline.

For `C[n+]1c(-c2cccc3ccccc23)c2cc(N)ccc2c2ccccc21`, the survivor count reads like this: (dose: 3.0 mg/kg/injection, vehicle: saline) 3 of 5 on day 43; (dose: 6.0 mg/kg/injection, vehicle: saline) 3 of 5 on day 43; (dose: 12.0 mg/kg/injection, vehicle: saline) 0 of 5 on day 43.

As to `O=P1(NCCCl)OCCCN1CCCl` (centres undefined), the survivor count by setting is: (dose: 100.0 mg/kg/injection, vehicle: suspension in saline) 3 of 5 on day 41; under setting [1], 0 of 5 on day 39; (dose: 400.0 mg/kg/injection, vehicle: saline) 0 of 5 on day 39; (dose: 800.0 mg/kg/injection, vehicle: saline) 0 of 5 on day 39.

With `NC(=S)N/N=C/c1ccc(O)cn1`, the survivor count (dose: 1200.0 mg/kg/injection, vehicle: saline with Tween-80) was 3 of 5 on day 42.

With `COc1cc([C@@H]2c3cc4c(c(O)c3C[C@H]3COC(=O)[C@@H]32)OCO4)cc(OC)c1O`, the survivor count runs as follows: (dose: 12.5 mg/kg/injection, vehicle: saline) 2 of 5 on day 39; (dose: 25.0 mg/kg/injection, vehicle: saline) 0 of 5 on day 39.

As to `O=C/C(Cl)=C(/Cl)C(=O)O`, the survivor count is recorded as 1 of 5 on day 35 (dose: 25.0 mg/kg/injection, vehicle: saline with Tween-80); 0 of 5 on day 35 (dose: 50.0 mg/kg/injection, vehicle: saline with Tween-80); 0 of 5 on day 35 (dose: 100.0 mg/kg/injection, vehicle: saline with Tween-80).

In the case of `CNC(=O)ON(C(C)=O)C(=O)NC`, under setting [1], the survivor count was 0 of 5 on day 39.

With `CCN(CC)CCCC(C)Nc1c2ccc(Cl)cc2nc2ccc(OC)cc12` (centres undefined), for the setting “dose: 100.0 mg/kg/injection, vehicle: saline with Tween-80, evaluated on day 34”, the T/C is 129 % of control. Further, for the setting “dose: 400.0 mg/kg/injection, vehicle: saline with Tween-80”, the survivor count was 0 of 5 on day 36.

For the compound `Oc1ccc(O)cc1`, the T/C (dose: 100.0 mg/kg/injection, vehicle: saline, evaluated on day 35) was 148 % of control. Further, the survivor count under setting [1] is 0 of 5 on day 37.

`CC(=O)OCC1OC(n2ccc(N)nc2=O)C(OC(C)=O)C1OC(C)=O` (centres undefined): where the note is “dose: 200.0 mg/kg/injection, vehicle: suspension in saline”, the survivor count is given as 3 of 5 on day 39.
